Results deposited as PubChem BioAssay AID1259308 (NCATS, 2017).
Shown is one part, drawn at random, of about 59,000 reagents tested. About 1,510 of them (2.6%) count as active. 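Calls use total luciferase alone and ignore viability, so some active siRNAs may act by altering cell number.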 Reagents against one gene are numbered here. Not all columns of the deposit are shown.

- Test: 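Knock-downs that increase output of a recombinant reporter protein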 (primary screen)
- Cells: human HEK293 embryonic kidney cells stably expressing firefly luciferase (HEK-CMV-Luc2-Hygro)
- Reagents: single siRNA against human genes, 0.8 pmol siRNA per well
- Duration: 72 h
- Read-out: 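Luciferase light (ONE-Glo) measured on one replicate plate set and viability (CellTiter-Glo) on the other, scaled to a negative control siRNA, with robust z-scores and luciferase per cell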
- Scale: total luciferase, z-score and total luciferase, % of control: higher = more reporter protein produced
- Hit rule: 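An siRNA counts as active if its total luciferase robust z-score exceeds 3; genes with two or more such siRNAs out of three were retested with fresh siRNAs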
- Meaning of the calls: active = raised luciferase; inactive = no rise

| gene symbol | reagent | total luciferase, z-score | total luciferase, % of control | Call |
| --- | --- | --- | --- | --- |
| TRIM25 (tripartite motif containing 25) | 1 | -0.192 | 78.1 | inactive |
| TRIM25 (tripartite motif containing 25) | 2 | -0.16 | 78.7 | inactive |
| TRIM25 (tripartite motif containing 25) | 3 | 0.714 | 96.1 | inactive |
| FAM230J (family with sequence similarity 230 member J) | 1 | -0.727 | 67.4 | inactive |
| FAM230J (family with sequence similarity 230 member J) | 2 | -0.882 | 64.3 | inactive |
| FAM230J (family with sequence similarity 230 member J) | 3 | 1.5 | 112 | inactive |
| FAM230J (family with sequence similarity 230 member J) | 4 | 1.66 | 115 | inactive |
| FAM230J (family with sequence similarity 230 member J) | 5 | -0.556 | 70.8 | inactive |
| FAM230J (family with sequence similarity 230 member J) | 6 | 0.469 | 91.2 | inactive |
| TBR1 (T-box brain transcription factor 1) | 1 | 0.593 | 93.7 | inactive |
| TBR1 (T-box brain transcription factor 1) | 2 | -0.747 | 67 | inactive |
| TBR1 (T-box brain transcription factor 1) | 3 | 0.96 | 101 | inactive |
| FAM240C (family with sequence similarity 240 member C) | 1 | 0.454 | 90.9 | inactive |
| FAM240C (family with sequence similarity 240 member C) | 2 | 0.625 | 94.3 | inactive |
| FAM240C (family with sequence similarity 240 member C) | 3 | -0.0536 | 80.8 | inactive |
| C4BPB (complement component 4 binding protein beta) | 1 | 0.276 | 87.4 | inactive |
| C4BPB (complement component 4 binding protein beta) | 2 | 1.55 | 113 | inactive |
| C4BPB (complement component 4 binding protein beta) | 3 | 0.32 | 88.2 | inactive |
| PSD (pleckstrin and Sec7 domain containing) | 1 | 0.441 | 90.7 | inactive |
| PSD (pleckstrin and Sec7 domain containing) | 2 | 0.000289 | 81.9 | inactive |
| PSD (pleckstrin and Sec7 domain containing) | 3 | 3.67 | 155 | active |
| JPH2 (junctophilin 2) | 1 | 0.726 | 96.3 | inactive |
| JPH2 (junctophilin 2) | 2 | 0.492 | 91.7 | inactive |
| JPH2 (junctophilin 2) | 3 | -0.254 | 76.8 | inactive |
| SH3BP1 (SH3 domain binding protein 1) | 1 | 0.716 | 96.1 | inactive |
| SH3BP1 (SH3 domain binding protein 1) | 2 | -0.445 | 73 | inactive |
| SH3BP1 (SH3 domain binding protein 1) | 3 | -0.918 | 63.6 | inactive |
| TRAPPC6A (trafficking protein particle complex subunit 6A) | 1 | -1.36 | 54.8 | inactive |
| TRAPPC6A (trafficking protein particle complex subunit 6A) | 2 | -1.27 | 56.6 | inactive |
| TRAPPC6A (trafficking protein particle complex subunit 6A) | 3 | -0.573 | 70.5 | inactive |
| BNIP3 (BCL2 interacting protein 3) | 1 | -0.215 | 77.6 | inactive |
| BNIP3 (BCL2 interacting protein 3) | 2 | -1.06 | 60.8 | inactive |
| BNIP3 (BCL2 interacting protein 3) | 3 | -0.878 | 64.4 | inactive |
| TSBP1 (testis expressed basic protein 1) | 1 | 1.08 | 103 | inactive |
| TSBP1 (testis expressed basic protein 1) | 2 | -0.0132 | 81.6 | inactive |
| TSBP1 (testis expressed basic protein 1) | 3 | 0.381 | 89.5 | inactive |
| WDR18 (WD repeat domain 18) | 1 | 2.79 | 137 | inactive |
| WDR18 (WD repeat domain 18) | 2 | -0.793 | 66.1 | inactive |
| WDR18 (WD repeat domain 18) | 3 | -0.744 | 67.1 | inactive |

Limited to “total luciferase, z-score” (6 entries from above):
TBR1 (T-box brain transcription factor 1) #3	0.96
FAM240C (family with sequence similarity 240 member C) #1	0.454
FAM240C (family with sequence similarity 240 member C) #2	0.625
FAM240C (family with sequence similarity 240 member C) #3	-0.0536
C4BPB (complement component 4 binding protein beta) #1	0.276
C4BPB (complement component 4 binding protein beta) #2	1.55
